According to paper PMC8660812:
These are yes or no findings as the source states them, for the method shown. Binding seen in cells or lysates may run through a third protein. Some binding calls cover weakened binding; strength is not graded here.

Chains of the proteins cited; added tags and fusions are not shown.
UniProt P49841: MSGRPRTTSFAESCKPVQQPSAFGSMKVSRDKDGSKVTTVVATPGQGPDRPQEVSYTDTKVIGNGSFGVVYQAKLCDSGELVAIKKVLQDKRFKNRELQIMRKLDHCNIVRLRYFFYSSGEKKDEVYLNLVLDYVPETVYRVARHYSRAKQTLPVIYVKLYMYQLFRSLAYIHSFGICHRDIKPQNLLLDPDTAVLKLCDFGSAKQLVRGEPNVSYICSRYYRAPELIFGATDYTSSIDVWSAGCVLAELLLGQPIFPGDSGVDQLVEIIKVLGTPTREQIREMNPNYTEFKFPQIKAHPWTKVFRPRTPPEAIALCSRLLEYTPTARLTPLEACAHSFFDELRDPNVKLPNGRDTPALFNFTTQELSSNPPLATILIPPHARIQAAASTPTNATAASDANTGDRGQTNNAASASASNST
UniProt P35579: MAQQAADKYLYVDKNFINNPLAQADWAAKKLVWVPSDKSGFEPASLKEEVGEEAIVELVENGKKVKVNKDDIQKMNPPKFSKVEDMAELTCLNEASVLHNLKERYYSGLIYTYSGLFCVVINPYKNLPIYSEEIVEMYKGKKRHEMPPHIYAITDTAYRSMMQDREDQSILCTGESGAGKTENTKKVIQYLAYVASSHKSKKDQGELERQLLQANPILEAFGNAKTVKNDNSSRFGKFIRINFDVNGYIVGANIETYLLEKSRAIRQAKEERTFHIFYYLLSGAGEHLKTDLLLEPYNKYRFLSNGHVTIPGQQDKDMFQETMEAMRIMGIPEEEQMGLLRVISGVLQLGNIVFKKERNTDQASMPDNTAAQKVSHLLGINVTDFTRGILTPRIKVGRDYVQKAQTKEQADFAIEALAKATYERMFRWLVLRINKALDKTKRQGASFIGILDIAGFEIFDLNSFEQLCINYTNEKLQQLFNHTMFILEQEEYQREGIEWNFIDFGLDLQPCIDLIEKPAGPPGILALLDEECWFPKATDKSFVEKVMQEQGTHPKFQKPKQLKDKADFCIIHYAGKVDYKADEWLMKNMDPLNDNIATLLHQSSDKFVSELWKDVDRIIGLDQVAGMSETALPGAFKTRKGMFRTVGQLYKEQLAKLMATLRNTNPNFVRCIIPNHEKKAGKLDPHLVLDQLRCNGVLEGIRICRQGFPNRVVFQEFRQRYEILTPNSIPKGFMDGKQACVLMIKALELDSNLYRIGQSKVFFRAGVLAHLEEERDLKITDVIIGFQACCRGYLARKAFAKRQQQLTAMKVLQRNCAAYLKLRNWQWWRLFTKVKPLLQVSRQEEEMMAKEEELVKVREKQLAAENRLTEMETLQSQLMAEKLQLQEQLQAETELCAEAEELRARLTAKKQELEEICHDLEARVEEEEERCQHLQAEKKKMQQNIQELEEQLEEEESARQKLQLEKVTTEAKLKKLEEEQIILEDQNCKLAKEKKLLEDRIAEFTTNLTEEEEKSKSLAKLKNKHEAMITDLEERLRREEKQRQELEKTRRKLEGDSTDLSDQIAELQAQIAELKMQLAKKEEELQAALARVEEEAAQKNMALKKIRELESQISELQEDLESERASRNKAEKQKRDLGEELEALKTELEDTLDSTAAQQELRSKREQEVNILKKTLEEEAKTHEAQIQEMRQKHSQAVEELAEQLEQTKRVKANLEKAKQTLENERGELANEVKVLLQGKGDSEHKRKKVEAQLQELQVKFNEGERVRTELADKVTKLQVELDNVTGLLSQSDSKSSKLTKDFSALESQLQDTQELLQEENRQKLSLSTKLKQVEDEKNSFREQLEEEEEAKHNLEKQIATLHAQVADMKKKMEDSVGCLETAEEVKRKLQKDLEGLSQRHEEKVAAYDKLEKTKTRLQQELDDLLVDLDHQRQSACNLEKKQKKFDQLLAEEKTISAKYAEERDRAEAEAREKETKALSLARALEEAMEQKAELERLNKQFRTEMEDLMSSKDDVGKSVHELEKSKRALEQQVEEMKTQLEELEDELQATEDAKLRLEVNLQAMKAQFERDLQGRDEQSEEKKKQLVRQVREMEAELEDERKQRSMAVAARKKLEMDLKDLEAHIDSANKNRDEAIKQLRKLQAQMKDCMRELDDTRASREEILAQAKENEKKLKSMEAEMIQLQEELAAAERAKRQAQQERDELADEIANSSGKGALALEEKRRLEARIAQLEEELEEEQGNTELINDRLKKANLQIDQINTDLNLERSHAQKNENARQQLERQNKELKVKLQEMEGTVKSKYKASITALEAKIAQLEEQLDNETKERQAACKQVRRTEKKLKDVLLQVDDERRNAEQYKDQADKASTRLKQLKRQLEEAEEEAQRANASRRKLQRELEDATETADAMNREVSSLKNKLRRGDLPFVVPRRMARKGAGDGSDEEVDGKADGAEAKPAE

Molecular target: GSK-3β (human (endogenous in U87 / LN229 glioma cells)) (UniProt P49841)
Assay: co-IP; Pierce Co-Immunoprecipitation kit; 5 mg total cell protein incubated with 10 μg specific antibodies (Abcam) or IgG overnight at 4 °C; western blotting; IgG as negative control; samples with and without MYH9 overexpression

binding: binds
Substance: Myosin heavy chain 9 (MYH9) (from UniProt P35579 1-1960)
